Test results published in PMC12591158.
Results are given in words; binding and its absence hold for the method and conditions named. Binding seen in cells or lysates may run through a third protein. Some binding calls cover weakened binding; strength is not graded here.

Chains of the proteins cited; added tags and fusions are not shown.
UniProt Q9Y572: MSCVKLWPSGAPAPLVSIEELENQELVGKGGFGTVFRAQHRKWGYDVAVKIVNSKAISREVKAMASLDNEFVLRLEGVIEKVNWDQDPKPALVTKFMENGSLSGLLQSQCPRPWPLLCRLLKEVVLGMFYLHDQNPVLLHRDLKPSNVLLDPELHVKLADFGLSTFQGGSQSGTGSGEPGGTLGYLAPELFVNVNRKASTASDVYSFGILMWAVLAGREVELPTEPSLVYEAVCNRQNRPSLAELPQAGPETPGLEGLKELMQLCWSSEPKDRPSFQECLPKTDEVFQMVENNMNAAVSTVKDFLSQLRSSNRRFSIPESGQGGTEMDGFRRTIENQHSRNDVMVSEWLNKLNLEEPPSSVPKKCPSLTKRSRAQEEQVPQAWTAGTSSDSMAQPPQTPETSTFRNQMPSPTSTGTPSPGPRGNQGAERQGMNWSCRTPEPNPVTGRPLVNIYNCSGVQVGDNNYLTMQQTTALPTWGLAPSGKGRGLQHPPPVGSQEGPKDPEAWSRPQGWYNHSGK

Target: HA-RIPK3 overexpressed in Beas-2B-ZBP1-EF3-AT cells (UniProt Q9Y572)
Test: co-IP

binding: binds
B1: ZBP1 constitutively expressed in Beas-2B-ZBP1-EF3-AT cells (protein, UniProt Q9H171 1-429)
chain: MAQAPADPGREGHLEQRILQVLTEAGSPVKLAQLVKECQAPKRELNQVLYRMKKELKVSLTSPATWCLGGTDPEGEGPAELALSSPAERPQQHAATIPETPGPQFSQQREEDIYRFLKDNGPQRALVIAQALGMRTAKDVNRDLYRMKSRHLLDMDEQSKAWTIYRPEDSGRRAKSASIIYQHNPINMICQNGPNSWISIANSEAIQIGHGNIITRQTVSREDGSAGPRHLPSMAPGDSSTWGTLVDPWGPQDIHMEQSILRRVQLGHSNEMRLHGVPSEGPAHIPPGSPPVSATAAGPEASFEARIPSPGTHPEGEAAQRIHMKSCFLEDATIGNSNKMSISPGVAGPGGVAGSGEGEPGEDAGRRPADTQSRSHFPRDIGQPITPSHSKLTPKLETMTLGNRSHKAAEGSHYVDEASHEGSWWGGGI
